# Results taken from PubChem BioAssay AID1671190 (National Center for Advancing Translational Sciences (NCATS), 2021).
# The chains behind the UniProt entries cited, without tags or fusion partners. Where a name states a change or a piece, a line headed by the entry shows the natural chain unless it says otherwise.
# UniProt P18054: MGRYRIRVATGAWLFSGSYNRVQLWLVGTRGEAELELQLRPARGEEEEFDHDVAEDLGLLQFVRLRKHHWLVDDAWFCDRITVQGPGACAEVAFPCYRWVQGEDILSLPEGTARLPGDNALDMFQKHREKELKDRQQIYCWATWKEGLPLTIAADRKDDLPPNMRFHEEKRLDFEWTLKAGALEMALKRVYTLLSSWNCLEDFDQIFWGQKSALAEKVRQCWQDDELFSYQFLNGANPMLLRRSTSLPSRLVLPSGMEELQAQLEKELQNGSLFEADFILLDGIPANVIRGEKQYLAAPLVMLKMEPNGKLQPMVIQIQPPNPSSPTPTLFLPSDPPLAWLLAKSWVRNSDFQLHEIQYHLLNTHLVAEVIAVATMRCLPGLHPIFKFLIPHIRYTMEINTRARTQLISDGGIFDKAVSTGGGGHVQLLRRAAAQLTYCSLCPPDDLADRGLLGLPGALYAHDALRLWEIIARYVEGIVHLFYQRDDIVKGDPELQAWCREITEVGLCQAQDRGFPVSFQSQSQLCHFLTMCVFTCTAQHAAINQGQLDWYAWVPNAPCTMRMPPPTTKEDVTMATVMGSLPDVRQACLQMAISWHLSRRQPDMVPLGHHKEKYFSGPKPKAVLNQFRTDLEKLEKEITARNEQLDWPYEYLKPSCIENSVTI
# About 6,100 (1.1%) of roughly 580,000 compounds were called active. Inconclusive results, whose numbers are uncertain, are shown with a selection of clear calls. Calls follow the shape of the dose curve; as a rule, active = well fitted inhibition curve with a large enough effect; inconclusive = small, poorly fitted or top-dose-only effect, or another doubt; inactive = no such curve, though single readings can be large or run the other way. A potency beside an inconclusive call is a rough fit, not a confirmed value.
# Biological target: Polyunsaturated fatty acid lipoxygenase ALOX12 (Homo sapiens) (UniProt P18054)
# Test: Primary qHTS assay for inhibitors of human arachidonate 12S-lipoxygenase (ALOX12): Round 2
# Settings: purified 12hLO, xylenol orange hydroperoxide absorbance; activity change, negative = inhibition: at 108 µM (top of the series) unless noted
# Summary of the method: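 Hydroperoxide product was detected by ferrous iron/xylenol orange as the 573 to 405 nm absorbance ratio. Arachidonic acid at 40 uM (final) was turned over for 30 min at room temperature by 150 nM human 12hLO, pH 7.0 Hepes buffer, after 15 min compound preincubation.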
# % is scaled to controls: 0 for no effect and ±100 for the full control effect; potency is read from the fitted curve at half-maximal effect.
SMILES,"activity change, negative = inhibition",Potency
Cc1ccc2nc3n(c(=O)c2c1)-c1ccc(Cl)cc1C(=O)NC3CC(C)C (stereo unspecified),inactive: -11.6%,–
O=S1(=O)NC2(CCCN(Cc3ccc(F)cc3)C2)COc2ccccc21 (stereo unspecified),inactive: 0.543% [at 6.33 µM],–
N#Cc1ccc(C(=O)NC(=S)N2CCOCC2)cc1,inactive: 111%,–
CNc1nc(-c2ccccc2OC)nc2ccccc12,–,"inconclusive: 39.8 µM [inhibitor, partial curve, poor fit]"
CCOc1ccc(C(=O)CN2CCN(S(=O)(=O)c3ccc(F)cc3)CC2)cc1,–,"inconclusive: 3.55 µM [inhibitor, full curve, poor fit]"
Cc1ccc(OCn2ccc(C(=O)NCc3c(C)nn(C)c3C)n2)c(C)c1,inactive: 23.8%,–
CCn1cc(C#N)c(=O)n(Cc2coc(-c3ccc(Cl)cc3)n2)c1=O,–,"inconclusive: 79.4 µM [inhibitor, single point]"
O=C(c1ccc(-c2cccc(C(F)(F)F)c2)o1)N1CCN(c2ccccc2)CC1,–,"inconclusive: 112 µM [inhibitor, partial curve, poor fit]"
Cc1cc(N2CCCC(C(=O)Nc3ccc4c(c3)CCC4)C2)n2ncnc2n1 (stereo unspecified),inactive: -7.51%,–
NC(=S)N/N=C1\CC(c2ccc3c(c2)OCCCO3)Oc2ccc(F)cc21 (stereo unspecified),–,active: 6.31 µM
COCCN1C=C(C(=O)OC)C(c2ccccc2C(F)(F)F)C(C(=O)OC)=C1,inactive: 11.7%,–
COc1ccc(Br)cc1-c1nc(C)c(C(=O)Nc2ccccc2)s1,–,"inconclusive: 17.8 µM [inhibitor, full curve, poor fit]"
O=C1CN(C(=S)NC(=O)c2ccccc2[N+](=O)[O-])CCN1,–,"inconclusive: 3.55 µM [inhibitor, full curve, poor fit]"
CCCc1cc(=O)[nH]c(Nc2cccc(Cl)c2Cl)n1,inconclusive: -34.3% [inhibitor],–
COC(=O)N/N=C/c1ccc(OC(=O)/C=C/c2ccco2)cc1,–,"inconclusive: 70.8 µM [inhibitor, single point]"
COc1ccc(C(=O)/C=C/c2cn(CC(O)CN3CCN(C)CC3)c3ccccc23)cc1OC (stereo unspecified),–,"inconclusive: 50.1 µM [inhibitor, partial curve, poor fit]"
O=c1cc(CN2CCN(c3ccccc3)CC2)nc2scc(-c3ccccc3)n12,inactive: -0.79%,–
O=C(O)c1cccc2c1C(=O)c1ccc(Cl)cc1S2(=O)=O,–,"inconclusive: 35.5 µM [inhibitor, full curve, poor fit]"
Cn1cc(C(=O)NCCNC(=O)c2ccccc2)c2ccccc21,inactive: 8.75%,–
Cc1onc(-c2ccccc2Cl)c1C(=O)O/N=C(\N)c1cccc([N+](=O)[O-])c1,inactive: -30.6%,–
O=C(NC1CCSC1=O)c1cc2ccccc2o1 (stereo unspecified),inactive: 3.46%,–
C[C@H](O)c1onc(-c2ccccc2)c1C(=O)N1CCN(C)CC1,–,"inconclusive: 126 µM [inhibitor, partial curve, poor fit]"
COc1ccc(CN2CCC(N3CC(C)OC(C)C3)CC2)c(OC)c1OC (stereo unspecified),–,"inconclusive: 0.631 µM [inhibitor, full curve, poor fit]"
COc1cc(/C=C2/NC(=O)NC2=O)cc(Br)c1OCc1cccc(F)c1,inactive: -7.79%,–

SMILES,"activity change, negative = inhibition",Potency
Cc1c(NC(=O)CCc2cc3n(n2)CCNC3)cccc1-c1nncn1C,–,"inconclusive: 11.2 µM [inhibitor, full curve]"
CCCN1C(=O)Cc2ccccc2C1C(=O)O (stereo unspecified),inactive: 44.4%,–
CCOC(=O)c1c(Nc2ccc(C)cc2)nnc(-c2ccccc2)c1-c1ccccc1,inactive: -19.1%,–
Cc1c(C(=O)N2CCN(C3CCS(=O)(=O)C3)CC2)oc2ccc(Cl)cc12 (stereo unspecified),–,"inconclusive: 56.2 µM [inhibitor, partial curve, poor fit]"
CN(CCc1noc(C(=O)NCc2ccc(F)cc2)n1)C(=O)Nc1cccc(Br)c1,–,"inconclusive: 31.6 µM [inhibitor, partial curve, poor fit]"
COc1cc(/C=N/n2cnnc2)ccc1OCCOc1ccccc1,–,"inconclusive: 35.5 µM [inhibitor, single point]"
COC(=O)c1ccc(OCC(O)CN2C(=O)c3ccccc3C2=O)cc1 (stereo unspecified),inactive: 11.5%,–
CCc1ccccc1NS(=O)(=O)c1ccc(OC)c2ncccc12,–,inactive
O=C(Cn1cc(/C=C2\NC(=O)N(Cc3ccccc3Cl)C2=O)c2ccccc21)N1CCOCC1,–,"inconclusive: 126 µM [inhibitor, single point]"
COc1cccc(C(O)c2nc(-c3cccc(C(C)C)c3)cs2)c1 (stereo unspecified),–,"inconclusive: 89.1 µM [inhibitor, partial curve, poor fit]"
CCC1CCCCN1C(=O)c1ccc2c(c1)N(Cc1cccc(Cl)c1)C(=O)c1ccccc1S2(=O)=O (stereo unspecified),–,"inconclusive: 100 µM [inhibitor, partial curve, poor fit]"
Cc1c(N)cc(S(=O)(=O)O)cc1NC(=O)c1cccc([N+](=O)[O-])c1,–,"inconclusive: 50.1 µM [inhibitor, partial curve, poor fit]"
CCc1nc2c(OCCc3cccc(OC)c3)cccn2c1N(C=O)Cc1ccc(OC)cc1,–,"inconclusive: 39.8 µM [inhibitor, partial curve, poor fit]"
Nc1nc2c(s1)C(c1cccc(F)c1)CC(=O)N2 (stereo unspecified),–,active: 15.8 µM
Cc1sc2nc(CN3CCCC3)nc(N3CCN(S(=O)(=O)c4cccs4)CC3)c2c1C,–,"inconclusive: 5.62 µM [inhibitor, full curve]"
O=C(Cc1ccc(F)cc1)NNC(=O)c1ccc2[nH]c3c(c2c1)CCCC3,–,"inconclusive: 15.8 µM [inhibitor, full curve, poor fit]"
Cc1ccccc1NCc1ccc([N+](=O)[O-])s1,inactive: 0%,–
Cc1ccc(NC(=O)c2cccc(NC(=O)/C=C/c3ccco3)c2)cc1C,–,active: 39.8 µM
CCCCn1nc2cc(C(=O)NCC34CC5CC(CC(C5)C3)C4)ccc2c1OC,–,"inconclusive: 44.7 µM [inhibitor, partial curve, poor fit]"
COc1ccc(C(=O)COC(=O)c2ccccc2O)c(OC)c1,inactive: 58.9%,–
CC1(CCCCc2ccccc2)COc2ccc(C(=O)Nc3cccnc3)cc2N1 (stereo unspecified),inactive: 18.5% [at 176 µM],–
COc1ccc(OCCn2c(C)nc3ccccc32)cc1,–,inactive
CCOc1ccc(OCCN(C)Cc2ccccc2)cc1,–,"inconclusive: 3.98 µM [inhibitor, full curve, poor fit]"
CCN(CC)S(=O)(=O)c1cccc(C(=O)NCC2COc3ccccc3O2)c1 (stereo unspecified),inactive: 4.29%,–

SMILES,"activity change, negative = inhibition",Potency
NC(=O)c1ccccc1NC(=O)C1(c2ccccc2)CCCC1,–,"inconclusive: 31.6 µM [inhibitor, single point]"
COc1ccc(OC)c(C2C=C(c3cccc(Br)c3)Nc3nnnn32)c1 (stereo unspecified),inactive: -21.8%,–
COC12CC(=O)C(C(C)=O)=C(O)C1(C)c1c(O)c(C)c(O)c(C(C)=O)c1O2 (stereo unspecified),–,active: 39.8 µM
CCC(=O)Nc1ccc2oc(-c3cccc(C)c3)nc2c1,–,inactive
COC(=O)c1ccc(CNC(=O)C(C)N=C2NS(=O)(=O)c3ccccc32)cc1 (stereo unspecified),–,"inconclusive: 2.82 µM [inhibitor, full curve, poor fit]"
Fc1ccc(-c2nc(Nc3cccc(Cl)c3)nc3c2COc2ccccc2-3)cc1,–,"inconclusive: 126 µM [inhibitor, partial curve, poor fit]"
CCCCCc1cc(=O)oc2c(C(CCN3CCCCC3)c3cc(OC)c(OC)c(OC)c3)c(OC)cc(OC)c12 (stereo unspecified),–,"inconclusive: 56.2 µM [inhibitor, partial curve, poor fit]"
CC(CNCc1ccco1)COc1ccc(F)cc1 (stereo unspecified),–,"inconclusive: 0.398 µM [inhibitor, full curve, poor fit]"
COc1ccc(/C=N/n2nnnc2N)cc1OC,–,"inconclusive: 100 µM [inhibitor, partial curve, poor fit]"
COc1ccccc1C(=O)NC(=S)Nc1cc(C(=O)O)ccc1C,–,"inconclusive: 50.1 µM [inhibitor, partial curve, poor fit]"
COc1cccc(N2CCN(Cc3ccco3)CC2)c1,–,"inconclusive: 2.51 µM [inhibitor, full curve, poor fit]"
Cc1cc(C)nc(NC(=O)CSc2nc3cc(Cl)ccc3s2)n1,–,"inconclusive: 0.794 µM [inhibitor, full curve, poor fit]"
CCOc1ccc(C(=O)Nc2ccccc2N2CCCC2)cc1,–,"inconclusive: 100 µM [inhibitor, single point]"
Cn1c(=O)c2c(nc(Cl)n2Cc2cccc(Cl)c2)n(C)c1=O,–,"inconclusive: 112 µM [inhibitor, single point]"
COc1cccc(/C=N/Nc2c(Cl)cncc2Cl)c1O,–,"inconclusive: 5.62 µM [inhibitor, full curve, poor fit]"
COc1cccc(C2NC(=O)c3ccccc3O2)c1OCc1ccccc1F (stereo unspecified),–,"inconclusive: 100 µM [inhibitor, single point]"
COc1ccc(NC(=O)COC(C)=O)cc1Cl,inactive: -29.6%,–
Cc1ccc(NC(=O)c2cc3cn(C(C)C)cc3s2)c(C)c1,–,"inconclusive: 20 µM [inhibitor, full curve, poor fit]"
COc1cccc(CN2Cc3nc(OCc4ccc(F)cc4)ccc3OCC2=O)c1,–,"inconclusive: 3.16 µM [inhibitor, full curve]"
O=C(O)c1ccc2c(c1)nc(Nc1cccc(Cl)c1)c1ccncc12,inactive: -0.133% [at 57.4 µM],–
CCCc1nc2ccc(C(=O)OC)cn2c1Cc1cccc(F)c1,inactive: -28.5%,–
Cc1n[nH]c(C)c1-c1nc2c([nH]1)CNCC2,inactive: 72.7%,–
CN1CCN(CCC(=O)N2c3ccccc3Sc3ccc(Cl)cc32)CC1,–,"inconclusive: 35.5 µM [inhibitor, partial curve, poor fit]"

# Some of these compounds in order of molecular weight, rising:
SMILES,"activity change, negative = inhibition",Potency
COc1ccc(NC(=O)COC(C)=O)cc1Cl,inactive: -29.6%,–
Cc1cc(C)nc(NC(=O)CSc2nc3cc(Cl)ccc3s2)n1,–,"inconclusive: 0.794 µM [inhibitor, full curve, poor fit]"
Fc1ccc(-c2nc(Nc3cccc(Cl)c3)nc3c2COc2ccccc2-3)cc1,–,"inconclusive: 126 µM [inhibitor, partial curve, poor fit]"
